PubChem BioAssay AID1224826 – NIAID – 2016
Screen: 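Genes that change LPS-induced Tnf promoter activity in mouse macrophages when knocked down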 (primary screen). Cell system: RAW264.7 G9 macrophages from mouse bearing reporters for p65 (GFP) and the Tnf promoter (mCherry). Reagents: siRNA pool against mouse genes, 100 nM. Time to read-out: 16 h of LPS stimulation, after 2 days of siRNA transfection. Treatment: bacterial lipopolysaccharide (Salmonella minnesota R595), 10 ng/ml. Measurement: 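Imaged Tnf reporter mCherry in nuclei, minus background, normalised per plate to the median and expressed as robust z-scores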. Direction: Tnf reporter robust z-score: higher = stronger Tnf promoter reporter signal after LPS; Tnf reporter intensity: higher = stronger Tnf promoter reporter signal. Call rule: 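a well counts as active at a score of -1.3 or below (Tlr4 knock-down control median) or above 3 (raised signal); controls and wells holding fewer than 50 cells are excluded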. Calls: active = Tnf reporter clearly lowered or raised; inactive = no clear change in Tnf reporter.
Shown is a random part of about 17,000 deposited reagents. About 1,110 of all reagents (6.6%) were called active. 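Active means lowered or raised reporter signal; replicate intensities are raw and not normalised per plate.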

target gene,Tnf reporter robust z-score,fewer than 50 cells in well,"Tnf reporter intensity, replicate 1","Tnf reporter intensity, replicate 2",Call
Ccr1,0.09,enough cells in well,220,307,inactive
Or13a28,0.88,enough cells in well,146,153,inactive
Atp4a,-0.84,enough cells in well,150,92,inactive
Smoc2,,fewer than 50 cells per well; well left out of calls,40.4,0,inactive
Ptk6,-0.32,enough cells in well,168,150,inactive
Prl6a1,2.12,enough cells in well,226,218,inactive
Atxn10,1.23,enough cells in well,176,186,inactive
Trim30a,,fewer than 50 cells per well; well left out of calls,87,47.4,inactive
Clptm1l,-0.38,enough cells in well,78.9,172,inactive
Hspa1l,0.64,enough cells in well,274,243,inactive
Ifi44,0.05,enough cells in well,157,164,inactive
Foxk2,0.11,enough cells in well,149,180,inactive
Or8k3b,0.06,enough cells in well,179,164,inactive
Epn3,-1,enough cells in well,160,87.5,inactive
Zbtb43,,fewer than 50 cells per well; well left out of calls,185,294,inactive
A230059G12Rik,-0.47,enough cells in well,170,101,inactive
Arhgap29,-0.07,enough cells in well,146,152,inactive
Adss1,-0.96,enough cells in well,167,99.7,inactive
Ubxn11,,fewer than 50 cells per well; well left out of calls,119,71.1,inactive
Mkln1,-0.72,enough cells in well,146,53.5,inactive
S1pr3,-0.32,enough cells in well,156,327,inactive
Dis3,2.59,enough cells in well,385,157,inactive
Il17f,-0.69,enough cells in well,153,97,inactive
Gdap1,0.22,enough cells in well,309,222,inactive
Smr2,-0.53,enough cells in well,89.4,50.9,inactive
Nubp2,-0.41,enough cells in well,187,173,inactive
Bud23,2.02,enough cells in well,228,188,inactive
Or2t26,0.08,enough cells in well,188,123,inactive
Med29,,fewer than 50 cells per well; well left out of calls,248,54.4,inactive
Ptafr,-0.01,enough cells in well,258,91.6,inactive
Kat14,0.14,enough cells in well,260,114,inactive
Ctsz,0.29,enough cells in well,294,187,inactive
Gpr50,-0.39,enough cells in well,177,274,inactive
Or14j9,1.1,enough cells in well,256,101,inactive
Csf2,-0.42,enough cells in well,200,176,inactive
Vash2,2.05,enough cells in well,291,277,inactive
Get3,-0.23,enough cells in well,151,158,inactive
Rprd1b,0.26,enough cells in well,269,77.3,inactive
Defb3,1.99,enough cells in well,320,265,inactive
Mrto4,0.4,enough cells in well,281,100,inactive
Smarcc1,0.09,enough cells in well,296,215,inactive
Nbl1,-1.29,enough cells in well,168,100,inactive
Or6c2b,,fewer than 50 cells per well; well left out of calls,67.4,44.7,inactive
Cela2a,-1.73,enough cells in well,77.9,48.1,active
Actr5,1.49,enough cells in well,209,282,inactive
Igfbp5,-1.35,enough cells in well,103,72.8,active
Ucn,-0.86,enough cells in well,154,173,inactive
H2-D1,0.08,enough cells in well,277,151,inactive
Sh3glb2,1.07,enough cells in well,125,151,inactive
Bckdhb,2.19,enough cells in well,213,334,inactive
Wdr48,-0.97,enough cells in well,139,109,inactive
Vmn1r229,-0.03,enough cells in well,92.9,109,inactive
Meak7,0.28,enough cells in well,157,191,inactive
Ddx54,-0.45,enough cells in well,194,109,inactive
Gprasp1,,fewer than 50 cells per well; well left out of calls,192,69.9,inactive
Frs3,0.45,enough cells in well,306,262,inactive
Klhl25,0.35,enough cells in well,231,231,inactive
Enox1,1.4,enough cells in well,171,224,inactive
Robo4,0.4,enough cells in well,150,70.2,inactive
Ap3m2,-0.74,enough cells in well,150,102,inactive
Entr1,5.63,enough cells in well,331,463,active
Hcn1,0.3,enough cells in well,287,185,inactive
Or8h8,-0.18,enough cells in well,189,131,inactive
Acap3,-0.29,enough cells in well,141,169,inactive
Atp5mj,,fewer than 50 cells per well; well left out of calls,87.6,41.9,inactive
Ca4,1.39,enough cells in well,233,270,inactive
Rprd1a,-0.69,enough cells in well,143,118,inactive
Capn6,-0.97,enough cells in well,119,107,inactive
Ahsg,-0.98,enough cells in well,164,101,inactive
Pcbd1,0.35,enough cells in well,275,200,inactive
Spata20,3.1,enough cells in well,235,102,active
Rbpms2,,fewer than 50 cells per well; well left out of calls,220,30.2,inactive
Xpa,-1.35,enough cells in well,114,139,active
Tanc2,-0.46,enough cells in well,156,117,inactive
Cep85,0.16,enough cells in well,288,66.3,inactive

Entries listed so far whose gene name starts with F or f (2):
target gene,Tnf reporter robust z-score,fewer than 50 cells in well,"Tnf reporter intensity, replicate 1","Tnf reporter intensity, replicate 2",Call
Foxk2,0.11,enough cells in well,149,180,inactive
Frs3,0.45,enough cells in well,306,262,inactive
